Measurements reported in patent US20030162221A1.
These are yes or no findings as the source states them, for the method shown. In cells and extracts the contact can be indirect. Some results given as binding are weak or reduced against the parent protein; the word gives no strength. Tags and fused reporters may be left off the sequences shown.

Amino acid sequences for entries named in this document (tags omitted).
UniProt P32598: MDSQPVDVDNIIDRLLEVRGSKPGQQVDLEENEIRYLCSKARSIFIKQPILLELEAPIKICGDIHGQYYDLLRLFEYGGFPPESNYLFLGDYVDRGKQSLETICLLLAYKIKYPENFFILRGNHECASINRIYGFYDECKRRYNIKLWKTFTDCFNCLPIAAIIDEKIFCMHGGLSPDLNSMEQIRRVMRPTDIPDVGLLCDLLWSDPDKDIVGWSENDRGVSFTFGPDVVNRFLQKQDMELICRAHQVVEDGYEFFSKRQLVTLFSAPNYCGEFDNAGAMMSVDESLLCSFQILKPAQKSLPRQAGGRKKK

Assays:
Assay in all cases: anti-FLAG co-IP, LC-MS/MS
[1] = biological target: T1, Sds22 (Saccharomyces cerevisiae) (UniProt P36047)
T1 sequence (looked up): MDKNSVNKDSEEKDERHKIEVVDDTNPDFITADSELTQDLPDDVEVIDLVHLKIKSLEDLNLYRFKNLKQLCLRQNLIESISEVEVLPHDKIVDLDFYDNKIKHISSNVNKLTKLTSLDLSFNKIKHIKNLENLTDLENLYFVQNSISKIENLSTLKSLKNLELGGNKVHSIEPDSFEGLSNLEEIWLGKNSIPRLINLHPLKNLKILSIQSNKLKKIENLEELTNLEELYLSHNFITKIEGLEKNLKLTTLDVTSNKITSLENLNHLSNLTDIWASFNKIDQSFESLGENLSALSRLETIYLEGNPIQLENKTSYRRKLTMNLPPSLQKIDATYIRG

[2] = biological target: T2, Ytm1 (Saccharomyces cerevisiae) (UniProt Q12024)
T2 sequence (looked up): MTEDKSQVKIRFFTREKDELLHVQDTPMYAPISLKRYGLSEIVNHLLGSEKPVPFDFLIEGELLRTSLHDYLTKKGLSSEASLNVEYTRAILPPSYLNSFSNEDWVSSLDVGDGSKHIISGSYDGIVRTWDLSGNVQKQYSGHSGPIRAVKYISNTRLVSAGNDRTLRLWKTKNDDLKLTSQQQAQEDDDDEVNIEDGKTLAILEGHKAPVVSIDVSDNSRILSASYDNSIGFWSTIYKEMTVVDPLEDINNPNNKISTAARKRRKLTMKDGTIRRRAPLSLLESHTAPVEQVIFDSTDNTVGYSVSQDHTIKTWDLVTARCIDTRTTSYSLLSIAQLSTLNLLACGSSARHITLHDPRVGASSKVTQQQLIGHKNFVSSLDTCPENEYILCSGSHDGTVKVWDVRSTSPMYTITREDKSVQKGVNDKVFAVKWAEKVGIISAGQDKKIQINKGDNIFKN

[3] = biological target: T3, Ygr103w (Saccharomyces cerevisiae) (UniProt P53261)
T3 sequence (looked up): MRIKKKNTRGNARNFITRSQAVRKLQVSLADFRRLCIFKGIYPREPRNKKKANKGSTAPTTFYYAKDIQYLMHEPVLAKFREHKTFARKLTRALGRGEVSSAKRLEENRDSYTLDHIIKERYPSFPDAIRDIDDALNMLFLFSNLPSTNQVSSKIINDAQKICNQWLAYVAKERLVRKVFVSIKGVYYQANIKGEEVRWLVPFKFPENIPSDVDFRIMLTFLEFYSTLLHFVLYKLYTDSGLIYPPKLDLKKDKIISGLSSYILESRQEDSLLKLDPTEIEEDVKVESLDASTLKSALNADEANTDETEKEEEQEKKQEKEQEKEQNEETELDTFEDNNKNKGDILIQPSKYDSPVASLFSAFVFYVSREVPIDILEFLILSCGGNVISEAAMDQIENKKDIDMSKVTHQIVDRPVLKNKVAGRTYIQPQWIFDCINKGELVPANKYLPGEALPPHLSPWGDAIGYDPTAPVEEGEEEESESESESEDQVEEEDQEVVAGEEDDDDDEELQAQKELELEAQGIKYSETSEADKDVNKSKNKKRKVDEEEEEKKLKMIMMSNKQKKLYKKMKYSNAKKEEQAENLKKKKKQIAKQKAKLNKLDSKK

[4] = biological target: T4, Gph1 (Saccharomyces cerevisiae) (UniProt P06738)
T4 sequence (looked up): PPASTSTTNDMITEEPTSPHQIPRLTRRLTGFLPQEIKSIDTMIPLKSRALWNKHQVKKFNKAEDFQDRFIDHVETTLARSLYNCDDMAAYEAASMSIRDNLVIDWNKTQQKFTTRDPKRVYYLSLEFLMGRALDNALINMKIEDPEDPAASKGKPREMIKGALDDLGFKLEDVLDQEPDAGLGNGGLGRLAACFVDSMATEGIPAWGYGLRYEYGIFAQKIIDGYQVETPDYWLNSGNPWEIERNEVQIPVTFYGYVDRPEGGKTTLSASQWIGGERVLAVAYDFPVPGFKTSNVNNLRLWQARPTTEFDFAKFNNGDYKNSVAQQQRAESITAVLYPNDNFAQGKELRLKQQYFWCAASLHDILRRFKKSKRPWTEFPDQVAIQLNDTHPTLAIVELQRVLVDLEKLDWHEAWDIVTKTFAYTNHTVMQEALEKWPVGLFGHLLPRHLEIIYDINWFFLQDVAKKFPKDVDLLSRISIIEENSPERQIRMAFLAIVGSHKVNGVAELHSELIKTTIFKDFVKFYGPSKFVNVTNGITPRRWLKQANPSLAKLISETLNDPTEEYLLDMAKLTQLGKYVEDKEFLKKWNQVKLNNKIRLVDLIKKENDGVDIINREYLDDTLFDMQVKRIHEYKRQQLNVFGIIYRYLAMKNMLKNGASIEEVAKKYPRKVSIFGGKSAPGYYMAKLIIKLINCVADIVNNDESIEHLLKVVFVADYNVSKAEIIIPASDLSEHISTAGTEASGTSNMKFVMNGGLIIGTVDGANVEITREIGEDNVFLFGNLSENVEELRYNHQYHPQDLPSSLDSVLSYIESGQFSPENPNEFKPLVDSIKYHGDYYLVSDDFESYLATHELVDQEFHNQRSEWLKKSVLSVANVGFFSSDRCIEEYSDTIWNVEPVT

[5] = biological target: T5, Glc8 (Saccharomyces cerevisiae) (UniProt P41818)
T5 sequence (looked up): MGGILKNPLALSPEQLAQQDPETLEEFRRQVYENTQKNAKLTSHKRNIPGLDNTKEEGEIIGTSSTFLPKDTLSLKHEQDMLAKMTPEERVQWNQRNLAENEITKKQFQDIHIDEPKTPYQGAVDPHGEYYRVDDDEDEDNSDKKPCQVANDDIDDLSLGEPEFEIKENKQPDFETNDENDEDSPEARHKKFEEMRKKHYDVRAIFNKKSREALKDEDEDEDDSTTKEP

Measured: binding

Glc7 (from UniProt P32598 1-312)
binds: [1] | [2] | [3] | [4] | [5]
